# Laboratory results taken from PubChem BioAssay AID493014 (National Center for Advancing Translational Sciences (NCATS), 2011).
# Among all 340,000 compounds or so, about 170 (0.05%) were called active. Inconclusive means that the source gave no clear call. Such entries were picked first, then a sample of the others. Calls follow the shape of the dose curve; as a rule, active = well fitted inhibition curve with a large enough effect in the signal ratio, with a control signal flat (not every such curve was filed as active); inconclusive = small, poorly fitted or top-dose-only effect, or effect the other way, or a change in a side signal; inactive = flat fitted curve, though single readings scatter; the % refers to the signal ratio. Where the call is inconclusive, the potency comes from a doubtful curve fit.
# Test: qHTS Assay to Find Inhibitors of Chronic Active B-Cell Receptor Signaling;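 as to activity change, negative = inhibition: plate controls were basal doxycycline-induced cells for no effect and cells given 10 µM MG132 for full effect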
# Details: ABC-DLBCL IkBa-CBG/CBR reporter, luminescence ratio (green luciferase fused to IkBa over red control in TMD8 lymphoma cells), 4 h; activity change, negative = inhibition: at 46.1 µM (top of the series)
# Method in brief: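 Doxycycline induced both beetle luciferases in TMD8 lymphoma cells; IKK-driven degradation limits the IkappaBalpha-fused green signal, while red luminescence normalises for cell number and nonspecific effects. Compounds tested up to 46 uM, 4 hrs.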
# Potency is read from the fitted curve at half-maximal effect.
Structure (SMILES),"activity change, negative = inhibition",Potency
Cc1nc2ccccn2c1P(=S)(N1CCCCC1)N1CCCCC1,inconclusive: 19.3%,
C/C(=N\Nc1ccccc1)c1c(O)[nH]c(=O)[nH]c1=O,inconclusive: 2.69%,
CC1CC2(O)c3nonc3CCC2N1O (configuration not stated),inconclusive: 14.2%,
COc1ccccc1-n1c(-c2ccccc2Br)nc2ccccc2c1=O,inconclusive: -3.87%,
Cn1cc(C(=O)OCC(=O)N2CCCC2)c2ccccc21,,"inconclusive: 18.4 µM [falling, partial curve]"
CN(C(=O)Oc1ccc([N+](=O)[O-])cc1)c1ccccc1,,"inconclusive: 23.1 µM [rising, partial curve, poor fit]"
O=c1c2ccccc2nc(-c2ccccc2)n1-c1cccc(O)c1,inactive,
CCn1cc(C=C2C(=O)NC(=O)NC2=O)c2ccccc21,inconclusive: -9.6%,
COc1ccc2oc3c(c2c1)NC(=O)CN=C3c1ccccc1,inconclusive: -13.9%,
Cc1ccc2c(c1)C1CN(C)CCC1N2C(=O)Nc1cccc(C(F)(F)F)c1 (configuration not stated),inconclusive: 1.72%,
Cc1ccc(C(=O)/C=C/Nc2ccccc2C(N)=O)cc1,,"inconclusive: 22.4 µM [falling, partial curve]"
COC(=O)C1=C(c2ccc(-c3ccccc3)c(F)c2)C[C@@H]2CC[C@H]1N2C(=O)NCCOc1ccc(OC)cc1,,"inconclusive: 11.6 µM [falling, partial curve, poor fit]"
COC(=O)C1=C(c2ccc(Cl)c(C(F)(F)F)c2)C[C@@H]2CC[C@H]1N2C(=O)NCCOc1ccccc1Cl,inconclusive: 4.31%,
Nc1ccccc1C(=O)OCc1ccc([N+](=O)[O-])cc1,inconclusive: 0.151%,
CN(C(=O)Oc1ccc(Cl)c2cccnc12)c1ccccc1,inactive,
Cc1c(C(c2ccc(O)cc2)c2c(O)c3ccccc3oc2=O)c(=O)n(-c2ccccc2)n1C (configuration not stated),,"inconclusive: 18.4 µM [falling, partial curve]"
CN(C)CCN(CC1CCCN(Cc2ccccc2F)C1)C(=O)Cc1c(F)cccc1F (configuration not stated),inactive,
COc1cccc(CN2CC=C(c3ccc(F)cc3)CC2)c1,inconclusive: 1.68%,
CC1=NN(c2ccccc2)C(=O)C1/C=C1\C(=O)NC(=O)N(c2ccc(C)c(C)c2)C1=O (configuration not stated),,"inconclusive: 16.4 µM [rising, partial curve, poor fit]"
CCCCOCCCn1c(N)c(C(=O)OC(C)COC)c2nc3ccccc3nc21 (configuration not stated),inactive,
COc1ccc([N+](=O)[O-])cc1NC(=O)Nc1ccc(OC)c(OC)c1,,"inconclusive: 25.1 µM [falling, single point]"
Cc1ccccc1-c1nc(CS(=O)CC(=O)N2CCC3(CC2)OCCO3)c(C)o1 (configuration not stated),inactive,
N[C@@H](Cc1c[nH]c2ccccc12)c1nnc(SCc2ccccc2F)o1,inconclusive: -1.6%,
CC(=O)O[C@@]12CO[C@@H]1C[C@H](O)[C@@]1(C)C(=O)[C@H](O)C3=C(C)[C@@H](OC(=O)[C@H](O)[C@@H](NC(=O)c4ccccc4)c4ccccc4)C[C@@](O)([C@@H](OC(=O)c4ccccc4)C12)C3(C)C (some centres not stated),inactive,
CCN(CC)C(=O)c1ccc(NC(=O)c2ccc(-n3cncn3)c([N+](=O)[O-])c2)cc1,inactive,
Cc1ccccc1NP(=O)(Oc1ccccc1F)Oc1ccccc1F,inactive,

# Entries from the list above that contain nitrogen in an aromatic ring:
Structure (SMILES),"activity change, negative = inhibition",Potency
Cc1nc2ccccn2c1P(=S)(N1CCCCC1)N1CCCCC1,inconclusive: 19.3%,
C/C(=N\Nc1ccccc1)c1c(O)[nH]c(=O)[nH]c1=O,inconclusive: 2.69%,
CC1CC2(O)c3nonc3CCC2N1O (configuration not stated),inconclusive: 14.2%,
COc1ccccc1-n1c(-c2ccccc2Br)nc2ccccc2c1=O,inconclusive: -3.87%,
Cn1cc(C(=O)OCC(=O)N2CCCC2)c2ccccc21,,"inconclusive: 18.4 µM [falling, partial curve]"
O=c1c2ccccc2nc(-c2ccccc2)n1-c1cccc(O)c1,inactive,
CCn1cc(C=C2C(=O)NC(=O)NC2=O)c2ccccc21,inconclusive: -9.6%,
CN(C(=O)Oc1ccc(Cl)c2cccnc12)c1ccccc1,inactive,
Cc1c(C(c2ccc(O)cc2)c2c(O)c3ccccc3oc2=O)c(=O)n(-c2ccccc2)n1C (configuration not stated),,"inconclusive: 18.4 µM [falling, partial curve]"
CCCCOCCCn1c(N)c(C(=O)OC(C)COC)c2nc3ccccc3nc21 (configuration not stated),inactive,
Cc1ccccc1-c1nc(CS(=O)CC(=O)N2CCC3(CC2)OCCO3)c(C)o1 (configuration not stated),inactive,
N[C@@H](Cc1c[nH]c2ccccc12)c1nnc(SCc2ccccc2F)o1,inconclusive: -1.6%,
CCN(CC)C(=O)c1ccc(NC(=O)c2ccc(-n3cncn3)c([N+](=O)[O-])c2)cc1,inactive,

# (list continues)

Structure (SMILES),"activity change, negative = inhibition",Potency
Cn1c(O)c(C(=NCCc2c[nH]c3ccccc23)c2ccccc2)c(=O)n(C)c1=O,inconclusive: -13%,
CCOC(=O)C1(CCc2ccccc2)CCN(Cc2cccc3cnccc23)CC1,inconclusive: 18.7%,
CCn1nc(-c2ccccc2)nc2c(=O)n(C)c(=O)nc1-2,inconclusive: 24.1%,
CCCCN1C(=O)/C(=C/C=C/c2ccco2)C(=O)NC1=S,,"inconclusive: 11.6 µM [rising, partial curve, poor fit]"
Cc1ccc(NP(=O)(Oc2ccccc2F)Oc2ccccc2F)cc1C,inconclusive: -0.716%,
CC(C)(C)c1cc(C=C(C#N)C#N)cc(C(C)(C)C)c1O,inconclusive: 1.75%,
CCOP(=O)(OCC)C(NCc1ccccc1)c1ccc(Br)cc1 (configuration not stated),inconclusive: 9.66%,
COc1ccc(-[n+]2c(-c3ccccc3)cc(-c3ccccc3)cc2-c2ccccc2)cc1,,"inconclusive: 20.6 µM [falling, partial curve]"
CCOP(=O)(OCC)c1cc(CC)ccc1O,inconclusive: 8.65%,
COc1cccc(C2(O)CCSCC2CN(C)C)c1 (configuration not stated),inconclusive: 0.288%,
CCCCCCn1c(=O)c(C(=O)Nc2cccc(C)n2)c(O)c2ccccc21,inactive,
C[C@@H]1C[C@@H]([C@H](O)CC2CC(=O)NC(=O)C2)C(=O)[C@@H](C)C1,inconclusive: 10.5%,
Cc1ccc(-n2c(/C=C/c3ccccc3)nc3ccccc3c2=O)cc1C,inconclusive: 10.6%,
CCCCN1C(=O)NC(=O)C2(Cc3c(nc4c(C)cccn4c3=O)N3CCc4ccccc4C32)C1=O (configuration not stated),inconclusive: 3.95%,
COc1ccc(C2NCc3ccc4c(c3-n3cccc32)OCO4)cc1O (configuration not stated),,"inconclusive: 16.4 µM [falling, single point]"
CCCCn1c(=O)c(C=Nc2cc([N+](=O)[O-])ccc2OC)c(O)n(CCCCl)c1=O,inconclusive: 0.676%,
CCOC(=O)c1c(C)n(C(C)C)c2ccc(OC(=O)c3ccc(N4C(=O)CCC4=O)cc3)cc12,inconclusive: 1.33%,
COc1cc(C)cc(CN2CC=C(c3ccccc3)CC2)c1O,inconclusive: 0.246%,
CCOc1ccc2nc(N3CCC(C(=O)N4CCC5(CC4)OCCO5)CC3)sc2c1,,"inconclusive: 20.6 µM [falling, partial curve, poor fit]"
Cc1ccnc(-n2c(-c3ccco3)nc3ccccc3c2=O)c1,inconclusive: 1.52%,
COc1ccc(CNCCc2c(C)[nH]c3ccc(OC(F)(F)F)cc23)c(OC)c1,inconclusive: -8.89%,
Cn1c(=O)cc(OCC(=O)N2CCN(C3CCCCC3)CC2)c2ccccc21,,"inconclusive: 23.1 µM [falling, partial curve, poor fit]"
COc1cccc2sc3ccc(C#Cc4ccc(N)cc4)cc3c(=O)c12,,"inconclusive: 35.5 µM [rising, single point]"
COc1cc(C(O)CN)ccc1O (configuration not stated),inconclusive: -15.8%,
CC(NCc1ccc(Cl)cc1)C(O)c1ccccc1 (configuration not stated),inactive,
O=c1[nH]c(=O)n(Cc2ccco2)c(O)c1C=NC1CCN(Cc2ccccc2)CC1,inconclusive: 5%,

Structure (SMILES),"activity change, negative = inhibition",Potency
C[C@]12CC[C@H]3C(CCC4(O)CC(O)CC[C@]34C=O)C1=CC[C@H]2c1ccc(=O)oc1 (some centres not stated),inactive,
COCCNC(=O)c1c(N)n(CCC(C)C)c2nc3ccccc3nc12,inconclusive: 12.6%,
O=C1Nc2ccccc2C1Cc1nc2ccccc2c(=O)n1-c1ccccc1 (configuration not stated),,"inconclusive: 20 µM [falling, single point]"
O=C(c1cccnc1)C1CCCN(Cc2nc(-c3cnccn3)no2)C1 (configuration not stated),inconclusive: 10.9%,
O=c1c2ccccc2nc(N2CCCC2)n1-c1ccccc1,,"inconclusive: 3.26 µM [rising, partial curve, poor fit]"
Cc1ccc2c(c1)N(CCC(=O)N1CCC3(CC1)OCCO3)C(=O)C(C)O2 (configuration not stated),inactive,
Cc1cc(C(=O)OCC(=O)Nc2ccc(F)cc2F)c(C)n1C1CC1,,"inconclusive: 7.31 µM [falling, partial curve, poor fit]"
C[C@]12CC[C@H](O)CC1=CCC1C2CC[C@]2(C)C(=O)[C@H](Br)CC12 (some centres not stated),inconclusive: -13%,
N/C(=N\OC(=O)c1ccc2c(c1)OCO2)c1cccnc1,,"inconclusive: 22.4 µM [falling, single point]"
O=c1[nH]c(=O)n(-c2cccc(F)c2)c(O)c1/C=C1\C=Nc2ccccc21,,"inconclusive: 28.2 µM [falling, single point]"
COc1ccc(C(=O)CC2(CC(=O)c3ccc(OC)cc3)C(=O)N(C)C(=O)N(C)C2=O)cc1,inconclusive: -9.64%,
Cn1ccc(NC(=O)CCl)n1,,"inconclusive: 12.6 µM [falling, partial curve]"
CCSc1nnc(NC(=O)COc2ccccc2[N+](=O)[O-])s1,,"inconclusive: 28.2 µM [falling, single point]"
CN(C)c1nc(N(C)C)nc(N(C#N)CCCl)n1,,"inconclusive: 35.5 µM [falling, single point]"
COc1cc2c(c(OC)c1OC)-c1ccc(O)c(=O)cc1C(NC(C)=O)CC2 (configuration not stated),,"inconclusive: 0.126 µM [falling, full curve, poor fit]"
Cc1cccc(CN2C(=O)CN=C(c3ccccc3Cl)c3cc(Cl)ccc32)c1,inconclusive: 9.28%,
COc1ccc(OC)c(CN2CCCC(C(=O)c3sccc3C)C2)c1 (configuration not stated),inactive,
COC(=O)C1=C(c2ccc(F)cc2F)C[C@@H]2CC[C@H]1N2C(=O)N1CCCC1,inactive,
CCn1c(O)c(C(=O)CC2NCCc3ccccc32)c(=O)n(CC)c1=S (configuration not stated),inconclusive: -1.28%,
O=C(c1cccc2ccccc12)C1CCCN(Cc2ccon2)C1 (configuration not stated),inconclusive: -10%,
Cc1ccc(Cl)cc1N1CCN(C(=O)C2CCN(S(=O)(=O)c3ccc4c(c3)oc(=O)n4C)CC2)CC1,inconclusive: -0.462%,
Cc1cc(/C=C2/C(=O)NC(=O)N(c3ccc(Br)cc3)C2=O)c(C)n1C,inconclusive: 2.55%,
Clc1ccc(-c2nc3ccc(Cl)cn3c2CN2CCCCC2)cc1,inactive,
CCCCN1CCC(O)(c2ccccc2)C(C(=O)c2ccccc2)C1 (configuration not stated),inactive,
C[C@H]1O[C@@H](O[C@H]2[C@@H](O)C[C@H](O[C@H]3[C@@H](O)C[C@H](O[C@H]4CC[C@@]5(C)[C@H](CC[C@@H]6[C@@H]5CC[C@]5(C)[C@@H](C7=CC(=O)OC7)CC[C@]65O)C4)O[C@@H]3C)O[C@@H]2C)C[C@H](O)[C@@H]1O,inconclusive: 0.467%,

# Grouped by structure: those above containing an aryl thioether with sulfur outside any ring.
Structure (SMILES),"activity change, negative = inhibition",Potency
N[C@@H](Cc1c[nH]c2ccccc12)c1nnc(SCc2ccccc2F)o1,inconclusive: -1.6%,
CCSc1nnc(NC(=O)COc2ccccc2[N+](=O)[O-])s1,,"inconclusive: 28.2 µM [falling, single point]"
